Among the data in paper PMC10803770 are binding values, retold here.

Chains of the proteins cited; added tags and fusions are not shown. Residues count along the entry.
UniProt Q9UBV2, residues 22-794: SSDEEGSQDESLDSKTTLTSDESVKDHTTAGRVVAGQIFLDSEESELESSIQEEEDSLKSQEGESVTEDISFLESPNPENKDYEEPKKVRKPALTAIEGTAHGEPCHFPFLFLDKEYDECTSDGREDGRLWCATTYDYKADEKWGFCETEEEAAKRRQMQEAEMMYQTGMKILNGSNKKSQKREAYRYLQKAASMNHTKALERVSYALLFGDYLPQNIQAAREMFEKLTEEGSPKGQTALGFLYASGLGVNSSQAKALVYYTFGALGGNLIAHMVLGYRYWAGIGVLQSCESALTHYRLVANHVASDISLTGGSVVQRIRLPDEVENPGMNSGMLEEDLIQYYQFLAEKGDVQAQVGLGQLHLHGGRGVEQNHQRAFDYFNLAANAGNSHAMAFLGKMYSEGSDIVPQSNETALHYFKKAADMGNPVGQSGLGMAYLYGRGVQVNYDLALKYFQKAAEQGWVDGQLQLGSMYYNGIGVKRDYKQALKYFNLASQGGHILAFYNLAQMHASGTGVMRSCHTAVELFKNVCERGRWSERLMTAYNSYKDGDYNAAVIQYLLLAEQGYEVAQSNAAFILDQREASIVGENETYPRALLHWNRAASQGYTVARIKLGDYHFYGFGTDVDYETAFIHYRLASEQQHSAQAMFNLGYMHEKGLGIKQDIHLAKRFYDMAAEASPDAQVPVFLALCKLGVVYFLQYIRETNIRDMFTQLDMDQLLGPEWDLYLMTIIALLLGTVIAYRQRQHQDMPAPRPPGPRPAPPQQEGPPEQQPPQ

These are yes or no findings as the source states them, for the method shown. Binding seen in cells or lysates may run through a third protein. Some binding calls cover weakened binding; strength is not graded here.

The target in test [1] is SEL1L (human (endogenous in HEK293T)) (UniProt Q9UBV2). Nature of the test: co-IP; IP of endogenous SEL1L with home-made anti-SEL1L antibody and protein A agarose from ~5 mg HEK293T lysate (WT, HRD1 KO; SEL1L KO and IgG as controls); 150 mM NaCl, 0.2% NP40, 0.1% Triton X-100, 25 mM Tris-HCl pH 7.5, 10 mM N-ethylmaleimide, 4 °C; immunoblot. On the technique in general: In western blotting, separated proteins are transferred to a membrane and probed.

Test [2] concerns the target T1, phosphatidylinositol glycan anchor biosynthesis class K (human (endogenous in HEK293T)) (UniProt Q92643).
T1 sequence: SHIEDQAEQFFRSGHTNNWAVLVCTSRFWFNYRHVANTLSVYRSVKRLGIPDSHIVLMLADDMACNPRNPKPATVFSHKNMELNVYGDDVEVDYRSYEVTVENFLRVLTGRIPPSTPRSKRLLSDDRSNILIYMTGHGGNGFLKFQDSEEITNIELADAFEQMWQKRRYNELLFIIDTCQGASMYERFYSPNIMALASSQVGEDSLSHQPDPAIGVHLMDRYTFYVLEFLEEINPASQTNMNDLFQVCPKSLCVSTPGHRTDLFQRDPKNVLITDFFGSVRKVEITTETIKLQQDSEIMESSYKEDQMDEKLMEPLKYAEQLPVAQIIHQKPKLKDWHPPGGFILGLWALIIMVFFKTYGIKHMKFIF
The experiment in a line: co-IP; IP of endogenous PIGK with anti-PIGK (Abcam ab201693) and protein A agarose from HEK293T lysate (WT, SEL1L KO, HRD1 KO); 150 mM NaCl, 0.2% NP40, 0.1% Triton X-100, 25 mM Tris-HCl pH 7.5, 4 °C; immunoblot.

B1: phosphatidylinositol glycan anchor biosynthesis class K (protein, UniProt Q92643 28-395)
chain: T1 sequence
As for B1, the binding result in test [1] is listed as “binds”.

B2: PIGT (protein, UniProt Q969N2 22-578)
chain: LAEPPRDSLREELVITPLPSGDVAATFQFRTRWDSELQREGVSHYRLFPKALGQLISKYSLRELHLSFTQGFWRTRYWGPPFLQAPSGAELWVWFQDTVTDVDKSWKELSNVLSGIFCASLNFIDSTNTVTPTASFKPLGLANDTDHYFLRYAVLPREVVCTENLTPWKKLLPCSSKAGLSVLLKADRLFHTSYHSQAVHIRPVCRNARCTSISWELRQTLSVVFDAFITGQGKKDWSLFRMFSRTLTEPCPLASESRVYVDITTYNQDNETLEVHPPPTTTYQDVILGTRKTYAIYDLLDTAMINNSRNLNIQLKWKRPPENEAPPVPFLHAQRYVSGYGLQKGELSTLLYNTHPYRAFPVLLLDTVPWYLRLYVHTLTITSKGKENKPSYIHYQPAQDRLQPHLLEMLIQLPANSVTKVSIQFERALLKWTEYTPDPNHGFYVSPSVLSALVPSMVAAKPVDWEESPLFNSLFPVSDGSNYFVRLYTEPLLVNLPTPDFSMPYNVICLTCTVVAVCYGSFYNLLTRTFHIEEPRTGGLAKRLANLIRRARGVPPL
Consider B2, for which the binding entry in test [2] and in test [1] was “binds” throughout.

B3: OS9 (protein, UniProt Q13438 26-667)
chain: GGVGSLNLEELSEMRYGIEILPLPVMGGQSQSSDVVIVSSKYKQRYECRLPAGAIHFQREREEETPAYQGPGIPELLSPMRDAPCLLKTKDWWTYEFCYGRHIQQYHMEDSEIKGEVLYLGYYQSAFDWDDETAKASKQHRLKRYHSQTYGNGSKCDLNGRPREAEVRFLCDEGAGISGDYIDRVDEPLSCSYVLTIRTPRLCPHPLLRPPPSAAPQAILCHPSLQPEEYMAYVQRQADSKQYGDKIIEELQDLGPQVWSETKSGVAPQKMAGASPTKDDSKDSDFWKMLNEPEDQAPGGEEVPAEEQDPSPEAADSASGAPNDFQNNVQVKVIRSPADLIRFIEELKGGTKKGKPNIGQEQPVDDAAEVPQREPEKERGDPERQREMEEEEDEDEDEDEDEDERQLLGEFEKELEGILLPSDRDRLRSEVKAGMERELENIIQETEKELDPDGLKKESERDRAMLALTSTLNKLIKRLEEKQSPELVKKHKKKRVVPKKPPPSPQPTEEDPEHRVRVRVTKLRLGGPNQDLTVLEMKRENPQLKQIEGLVKELLEREGLTAAGKIEIKIVRPWAEGTEEGARWLTDEDTRNLKEIFFNILVPGAEEAQKERQRQKELESNYRRVWGSPGGEGTGDLDEFDF
For the molecule B3, the binding entry in test [1] is “binds”.
